Measurements taken from the supplement of paper PMC4635364.
Counter-ions that a name gives are not always drawn. This is one part of the list. Single values are uncertain here, since repeats match poorly.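 ReNCell VM, a human fetal ventral-midbrain neural progenitor line, was differentiated without mitogens. Blinded raters scored images stained for doublecortin (early neurons) or tyrosine hydroxylase (dopaminergic neurons) against untreated wells (0 = no change). Scores were averaged across repeats and both raters, and compounds averaging 2 or more were selected as hits for retesting.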

tested on: ReNCell VM; experiment: neuronal differentiation score (DCX+ cell fraction vs untreated, manual image score) (score (-3 to 3)); higher = more neuronal differentiation; details: library: Tocriscreen; 2 uM; 2 weeks

Neuronal differentiation score, inactive:
CC1(COc2ccc(CC3SC(=O)NC3=O)cc2)CCCCC1 (configuration not stated) [Ciglitazone] 0
COc1ccc([C@H]2CNC(=O)C2)cc1OC1CCCC1 [(S)-(+)-Rolipram] 0
CN(C)c1nc(N)c(C(=O)Nc2cccnc2)nc1Cl [ACDPP hydrochloride] 0
CNC(=O)[C@H]1O[C@@H](n2cnc3c(NCc4cccc(I)c4)nc(Cl)nc32)[C@H](O)[C@@H]1O -1
CCN(CC)CC1CCCCN1CC(=O)N1c2ccccc2C(=O)Nc2cccnc21 (configuration not stated) -3
Cc1c(NC(=O)N2CCOCC2)ccc2c1c1ccccc1n2C(C)C 0

tested on: ReNCell VM; experiment: dopaminergic neuron differentiation score (TH+ cell fraction vs untreated, manual image score) (score (0 to 3)); higher = more TH+ dopaminergic neuron differentiation; details: library: LOPAC; 2 uM; 4 weeks; BDNF 10 ng/ml + GDNF 10 ng/ml

Dopaminergic neuron differentiation score, inactive:
C[C@]12CC[C@@H]3c4ccc(O)cc4CC[C@H]3[C@@H]1CC[C@@H]2O [beta-Estradiol] 0
Fc1ccc([C@@H]2CCNC[C@H]2COc2ccc3c(c2)OCO3)cc1 [Paroxetine hydrochloride hemihydrate (MW = 374.83)] 0
O=c1cc(O)cc(/C=C/c2ccc(O)c(O)c2)o1 [Hispidin] 0
O=C1NC(=S)S/C1=C\c1cc(Br)ccc1OCc1ccccc1Br [PRL-3 Inhibitor I] 0
CC(C)(C)c1cc(/C=C(\C#N)C(N)=S)cc(C(C)(C)C)c1O [Tyrphostin AG 879] 0
Cc1[nH]c(=O)c(C#N)cc1-c1ccc2nccn2c1 [Olprinone hydrochloride] 0

same assay, conditions: library: Prestwick; 2 uM; 4 weeks; BDNF 10 ng/ml + GDNF 10 ng/ml

Dopaminergic neuron differentiation score, inactive:
CCOC(=O)n1ccn(C)c1=S [Carbimazole] 0
CCCCCCCCNC(C)C(O)c1ccc(SC(C)C)cc1 (configuration not stated) [Suloctidil] 0
COc1ccc(NS(=O)(=O)c2ccc(N)cc2)nn1 [Sulfamethoxypyridazine] 0
Cc1cc2cc3c(C)cc(=O)oc3c(C)c2o1 [Trioxsalen] 1
CCCCc1cc2ccccc2c(OCCN(C)C)n1 [Dimethisoquin hydrochloride] 0
O=C(O)c1cc(/N=N/c2ccc(S(=O)(=O)Nc3ccccn3)cc2)ccc1O [Sulfasalazine] 0
CC(=O)c1ccc2c(c1)N(CCCN(C)C)c1ccccc1S2 [Acetopromazine maleate salt] 0
CN1CCCN(C(c2ccccc2)c2ccc(Cl)cc2)CC1 (configuration not stated) [Homochlorcyclizine dihydrochloride] 0
Cc1cccc(Nc2ccccc2C(=O)O)c1C [Mefenamic acid] 0
CN(C)C(=N)NC(=N)N [Metformin hydrochloride] 0

3 entries already listed, sorted by SMILES length, falling.
Dopaminergic neuron differentiation score, inactive:
O=C(O)c1cc(/N=N/c2ccc(S(=O)(=O)Nc3ccccn3)cc2)ccc1O [Sulfasalazine] 0
CCCCCCCCNC(C)C(O)c1ccc(SC(C)C)cc1 (configuration not stated) [Suloctidil] 0
CCOC(=O)n1ccn(C)c1=S [Carbimazole] 0
